Some of the results follow.
What follows are compounds tested on T1, CTL2-GFP (C. trachomatis L2/434/Bu, GFP-expressing). Conditions: bulk GFP, single well; 28.5 h, 10 µM; inhibitor.
T1 construct: L2/434/Bu, GFP-expressing
Design: species or system HeLa; Intracellular C. trachomatis growth in HeLa cells, bulk GFP fluorescence relative to DMSO
For CCOc1ncccc1NC(=O)N(CC1CCOC1)C1CC1 (stereo not shown) [CBK305077], the “% of control remaining” value was 133.18%.
In the case of O=C(c1cccc(NS(=O)(=O)Cc2ccccc2)c1)N1CCOCC1 [CBK038991], the “% of control remaining” value is reported as 93.8528%.
CCOC(=O)c1c(NC(=O)CNCc2cccnc2)sc2c1CCCC2 [CBK304577] was tested, and the “% of control remaining” value was 132.242%.
For Cc1nc(-c2cccnc2)[nH]c(=O)c1CC(=O)N1CCSCC1 [CBK305944], the “% of control remaining” value was 138.706%.
O=C(Cc1nn[nH]n1)Nc1ccc(F)c(Cl)c1 [CBK006384] was tested, and the “% of control remaining” value was 103.974%.
In the case of CCNC(=O)N[C@H]1C[C@@H](Cc2cc(CN(C)C)on2)C1(C)C [CBK289310], the “% of control remaining” value is reported as 168.726%.
With CC(C)[C@H](CO)Nc1nccnc1-c1ccccc1F [CBK037987] the “% of control remaining” value was 99.76%.
In the case of COc1ccc(C)cc1S(=O)(=O)n1ccc2c(CNC3CCN(C)CC3)cccc21 [CBK113308T], the “% of control remaining” value is reported as 100.686%.
CSCC(O)Cn1nc(O)cc(C)c1=O (stereo not shown) [CBK006293] was tested, and the “% of control remaining” value was 146.103%.
With COc1cccc(C(=O)N2Cc3ccccc3CC2C(=O)O)c1 (stereo not shown) [CBK287150] the “% of control remaining” value was 125.98%.
Cn1c2c(c(=O)n(C)c1=O)[C@@H]1C(C[C@](O)(COCc3ccccc3)[C@H]1O)C1(CCC1)N2 (stereo partly shown) [CBK303265] was tested, and the “% of control remaining” value was 117.353%.
For O=C1/C(=C2/Sc3ccccc3N2CCCS(=O)(=O)O)SC(=S)N1c1ccccc1 [CBK260954G], the “% of control remaining” value was 100%.
O=S(=O)(O)c1ccc(N/N=C/c2cccc(/C=N/Nc3ccc(S(=O)(=O)O)cc3)c2)cc1 [CBK278204N] was tested, and the “% of control remaining” value was 114.763%.
COc1ccc(Cl)cc1S(=O)(=O)N1CCC(C(N)=O)(N2CCCCC2)CC1 [CBK269571] was tested, and the “% of control remaining” value was 96.6794%.
In the case of Cc1onc(-c2ccccc2)c1NC(=O)Nc1cc2ccccc2c(Br)n1 [CBK105489], the “% of control remaining” value is reported as 127.534%.
O=C(Oc1ccc(N(C(=O)c2ccncc2)S(=O)(=O)c2cccc3cccnc23)cc1)c1ccncc1 [CBK267123] was tested, and the “% of control remaining” value was 166.553%.
In the case of CCN(CC)S(=O)(=O)c1ccc(C)c(C(=O)Oc2cccc(-c3cnc4ccccc4n3)c2)c1 [CBK264577], the “% of control remaining” value is reported as 100%.
For O=[N+]([O-])c1ccc(CN2CCC(Oc3cncc(OCC4COc5ccccc5O4)n3)C2)cc1 (stereo not shown) [CBK084369], the “% of control remaining” value was 96.0124%.
With O=C(Cc1cn2ccsc2n1)NCCS(=O)(=O)N1CCc2ccccc21 [CBK304282] the “% of control remaining” value was 138.951%.
With COCC1(C)NC(=O)N(Cc2nn(-c3ccccc3)c3c2CCC3)C1=O (stereo not shown) [CBK306483] the “% of control remaining” value was 139.919%.
In the case of COc1ccc(-c2cnc3[nH]c(=O)n(CC(C)(C)CO)c3n2)c(OC)c1OC [CBK064833], the “% of control remaining” value is reported as 138.683%.
In the case of CS(=O)(=O)Nc1ccc(C2=NN(S(C)(=O)=O)C(c3ccc4nccnc4c3)C2)cc1 (stereo not shown) [CBK267546], the “% of control remaining” value is reported as 113.842%.
With CC(C)N(Cc1cnn(C)c1)C(=O)c1cc(C2CC2)nc2ccccc12 [CBK305325] the “% of control remaining” value was 124.318%.
O=c1[nH]c2ccccc2n1CCCN1CCC[C@@H]1CN1CCCC1 [CBK137111T] was tested, and the “% of control remaining” value was 133.574%.
For Cc1noc(C)c1C(=O)N1CCCCCC1c1nn(C)cc1Cl (stereo not shown) [CBK285106], the “% of control remaining” value was 102.46%.
For CC(C)c1c(O)c2ccccc2[nH]c1=O [CBK159988], the “% of control remaining” value was 119.072%.
In the case of O=C(c1cccs1)N(Cc1ccco1)Cc1cc2ccccc2nc1O [CBK269602], the “% of control remaining” value is reported as 97.3705%.
For CCc1ccc(CNC(=O)Cn2nnc(-c3ccc(CNCC4CC4)cc3)n2)cc1 [CBK161032C], the “% of control remaining” value was 150.865%.
For C#CCNC(=O)C1CCCN(c2nc3ccccc3n2C)C1 (stereo not shown) [CBK282336], the “% of control remaining” value was 97.9002%.
In the case of O=C1NC2(CCc3ccccc31)CCN(C(=O)CCn1cccn1)C2 (stereo not shown) [CBK283352], the “% of control remaining” value is reported as 127.33%.
In the case of O=c1[nH]c2ccccc2c(O)c1C1=Nc2ccccc2S(=O)(=O)N1 [CBK019929], the “% of control remaining” value is reported as 100%.
With O[C@@H]1CN(Cc2ccccc2F)CC[C@H]1N1CCCC1 [CBK282934] the “% of control remaining” value was 119.024%.
For COCCN(Cc1cc2cccc(C)c2nc1O)S(C)(=O)=O [CBK269395], the “% of control remaining” value was 105.068%.
CC(NC(=O)c1ccc(-n2cccc2)cc1)c1ccccn1 (stereo not shown) [CBK296619] was tested, and the “% of control remaining” value was 107.121%.
O=C(Nc1cccc(-c2noc(CCc3ccccc3)n2)c1)c1cccs1 [CBK270225] was tested, and the “% of control remaining” value was 128.165%.
With O=C(Cn1ccc2ccc(F)cc21)Nc1cccc(-n2cnnc2)c1 [CBK282570] the “% of control remaining” value was 82.9524%.
In the case of N#C/C(C(=O)Nc1ccccc1)=C(/O)c1nn(-c2ccccc2)c2c1CSc1ccccc1-2 [CBK017685], the “% of control remaining” value is reported as 100%.
C(=N\Nc1ccc2nn(-c3ccccc3)nc2c1)/c1c[nH]c2ccccc12 [CBK261064] was tested, and the “% of control remaining” value was 104.247%.
For COC(=O)c1ccccc1NC(=O)Cn1cncc1-c1ccc([N+](=O)[O-])cc1 [CBK266741], the “% of control remaining” value was 136.014%.
CCCCC1CCC(C(=O)O)CC1 (stereo not shown) [CBK122493] was tested, and the “% of control remaining” value was 121.978%.

From article PMC12040169 (PLOS Biology, 2025)
